Some test systems named below: ADPRHL1 (human); ADRM1 (human); AFG3L1 (human); AHCY (human); AHSG (human); AIF1 (human); AK3 (human); AK3L1 (human); AKR1B10 (human).
What all share (test): protein microarray (ProtoArray v5.0), streptavidin-Alexa Fluor 647
What all share (settings): 3'-biotin; 20 mM Tris (pH 7.5), 5 mM MgCl2, 100 mM KCl, 0.1% Tween-20, A/T-rich and random oligonucleotide blockers; temperature not stated; high values mean tight binding

For a further assay, the target named is ADRB2 (UniProt P07550).

Several values for one entry are separate records, joined by “and”; a condition that tells them apart may be missing. Equal values may be shown once. This is one part of the list. For some of these results: The exact form of the protein is not confirmed.

For the sequence “GGTGACAGGGGTATGGGGAGGGG [G4-2 biotinylated (Ct1)]”, the binding signal was -0.389 z-score in the assay with ADPRHL1 (human); -0.372 z-score in the assay with ADRB2; -0.396 z-score in the assay with ADRM1 (human); -0.388 z-score in the assay with AFG3L1 (human); -0.373 z-score in the assay on AHCY (human); -0.364 z-score in the assay on AHSG (human). Besides, the binding signal with AIF1 (human) was -0.401 z-score and -0.372 z-score; in the assay on AK3 (human) it was -0.376 z-score; with AK3L1 (human), -0.382 z-score; in the assay on AKR1B10 (human), -0.371 z-score.
